# Measured values published in US20030175364A1, “Process for binding carotenoids to proteins and the products thereof” (priority 2002, published 2003).
# What was measured:
# [1] = system: Soy Isoflavone Protein Product; test: Binding of five different carotenoids to Soy Isoflavone Protein Product (Example 13); details: carbonate/bicarbonate buffer with calcium chloride; 0.4 mg carotenoid in THF per 200 mg protein, overnight
# [2] = Binding of lutein to proteins at mg scale (Example 7), supernatant + precipitate; details: 1 mg dry cake lutein per 200 mg protein, three days
Molecule,Estimated Carotenoid Content [1] [mg carotenoid/1 g protein],"Est. Sup + Est. Ppt., mg Lutein/1 g solids [2] [mg Lutein/1 g solids]","Est. Sup + Est. Ppt., mg Lutein/200 mg solids ([2]; listed as BSA)"
"CC1=C[C@H](O)CC(C)(C)[C@H]1/C=C/C(C)=C/C=C/C(C)=C/C=C/C=C(C)/C=C/C=C(C)/C=C/C1=C(C)C[C@@H](O)CC1(C)C [Lutein, lutein]",0.617,,
"CC1=C(/C=C/C(C)=C/C=C/C(C)=C/C=C/C=C(C)/C=C/C=C(C)/C=C/C2=C(C)CCCC2(C)C)C(C)(C)CCC1 [Beta carotene, beta-carotene]",0,,
"CC(C)=CCC/C(C)=C/C=C/C(C)=C/C=C/C(C)=C/C=C/C=C(C)/C=C/C=C(C)/C=C/C=C(\C)CCC=C(C)C [Lycopene, lycopene]",0.0647,,
Bovine Serum Albumin: bovine albumin,,0.1992,0.07519 mg Lutein/200 mg solids and 0.03984 mg Lutein/200 mg solids
"CC1=C(/C=C/C(C)=C/C=C/C(C)=C/C=C/C=C(C)/C=C/C=C(C)/C=C/C2=C(C)C[C@@H](O)CC2(C)C)C(C)(C)C[C@H](O)C1 [Zeaxanthin, zeaxanthin]",1.200,,

# “And” between values parts separate entries of the source, which are not always exact repeats. Identical values can stand only once.
